No constants are given. Whether binding was seen depends on the method and setting. In cells and extracts the contact can be indirect. Binding can be weak; no strength is given.
Tests used:
Assay in all cases: co-IP; anti-FLAG agarose IP from lysates of SEL1L-/- HEK293T cells transfected with SEL1L-FLAG variants, blots for endogenous partners; 150 mM NaCl, 0.2% NP-40, 0.1% Triton X-100, 25 mM Tris-HCl pH 7.5, overnight at 4 C
[1] = target: mouse SEL1L S658P-FLAG (mouse)
[2] = target: mouse SEL1L F668S-FLAG (mouse)
[3] = target: mouse SEL1L S658P/F668D-FLAG (mouse)
[4] = target: mouse SEL1L S658P/F668A-FLAG (mouse)
[5] = target: mouse SEL1L F668D-FLAG (mouse)
[6] = target: mouse SEL1L S658P/F668K-FLAG (mouse)
[7] = target: mouse SEL1L F668W-FLAG (mouse)
[8] = target: mouse SEL1L F668H-FLAG (mouse)
[9] = target: mouse SEL1L S658A-FLAG (mouse)
[10] = target: mouse SEL1L S658K-FLAG (mouse)
[11] = target: mouse SEL1L S658D-FLAG (mouse)
[12] = target: mouse SEL1L S658P/F668C-FLAG (mouse)
[13] = target: mouse SEL1L F668K-FLAG (mouse)
[14] = target: mouse SEL1L F668M-FLAG (mouse)
[15] = target: mouse SEL1L S658P/F668M-FLAG (mouse)
[16] = target: mouse SEL1L S658P/F668H-FLAG (mouse)
[17] = target: mouse SEL1L F668N-FLAG (mouse)
[18] = target: mouse SEL1L S658P/F668Y-FLAG (mouse)
[19] = target: mouse SEL1L F668Y-FLAG (mouse)
[20] = target: mouse SEL1L F668A-FLAG (mouse)
[21] = target: mouse SEL1L F668C-FLAG (mouse)
[22] = target: mouse SEL1L S658P/F668S-FLAG (mouse)

Measured: binding

B1: DERL2, endogenous human (protein, UniProt Q9GZP9 1-239)
chain: MAYQSLRLEYLQIPPVSRAYTTACVLTTAAVQLELITPFQLYFNPELIFKHFQIWRLITNFLFFGPVGFNFLFNMIFLYRYCRMLEEGSFRGRTADFVFMFLFGGFLMTLFGLFVSLVFLGQAFTIMLVYVWSRRNPYVRMNFFGLLNFQAPFLPWVLMGFSLLLGNSIIVDLLGIAVGHIYFFLEDVFPNQPGGIRILKTPSILKAIFDTPDEDPNYNPLPEERPGGFAWGEGQRLGG
binds: [1]

B2: OS9 (Osteosarcoma amplified 9), endogenous human (protein, UniProt Q13438 26-667)
chain: GGVGSLNLEELSEMRYGIEILPLPVMGGQSQSSDVVIVSSKYKQRYECRLPAGAIHFQREREEETPAYQGPGIPELLSPMRDAPCLLKTKDWWTYEFCYGRHIQQYHMEDSEIKGEVLYLGYYQSAFDWDDETAKASKQHRLKRYHSQTYGNGSKCDLNGRPREAEVRFLCDEGAGISGDYIDRVDEPLSCSYVLTIRTPRLCPHPLLRPPPSAAPQAILCHPSLQPEEYMAYVQRQADSKQYGDKIIEELQDLGPQVWSETKSGVAPQKMAGASPTKDDSKDSDFWKMLNEPEDQAPGGEEVPAEEQDPSPEAADSASGAPNDFQNNVQVKVIRSPADLIRFIEELKGGTKKGKPNIGQEQPVDDAAEVPQREPEKERGDPERQREMEEEEDEDEDEDEDEDERQLLGEFEKELEGILLPSDRDRLRSEVKAGMERELENIIQETEKELDPDGLKKESERDRAMLALTSTLNKLIKRLEEKQSPELVKKHKKKRVVPKKPPPSPQPTEEDPEHRVRVRVTKLRLGGPNQDLTVLEMKRENPQLKQIEGLVKELLEREGLTAAGKIEIKIVRPWAEGTEEGARWLTDEDTRNLKEIFFNILVPGAEEAQKERQRQKELESNYRRVWGSPGGEGTGDLDEFDF
not listed: [1]
binds: all other assays above

B3: UBE2J1, endogenous human (enzyme, UniProt Q9Y385 1-318)
chain: METRYNLKSPAVKRLMKEAAELKDPTDHYHAQPLEDNLFEWHFTVRGPPDSDFDGGVYHGRIVLPPEYPMKPPSIILLTANGRFEVGKKICLSISGHHPETWQPSWSIRTALLAIIGFMPTKGEGAIGSLDYTPEERRALAKKSQDFCCEGCGSAMKDVLLPLKSGSDSSQADQEAKELARQISFKAEVNSSGKTISESDLNHSFSLTDLQDDIPTTFQGATASTSYGLQNSSAASFHQPTQPVAKNTSMSPRQRRAQQQSQRRLSTSPDVIQGHQPRDNHTDHGGSAVLIVILTLALAALIFRRIYLANEYIFDFEL
binds: [1]
